These are yes or no findings as the source states them, for the method shown. Binding seen in cells or lysates may run through a third protein. Some binding calls cover weakened binding; strength is not graded here. Where a sequence is shown, tags or fusion partners need not be part of it.
How the values were obtained:
[1] = molecular target: Flag-D1R-CT (217–446aa) (mouse) (UniProt Q61616); assay: co-IP; HEK-293T cells co-transfected with a Flag-tagged and a Myc-tagged construct; lysis in 50 mM Tris-HCl pH 7.4, 150 mM NaCl, 1 mM EDTA, 1% Triton X-100; immunoprecipitation overnight with anti-FLAG M2, elution with 3x FLAG peptide, blot with anti-Myc or anti-Flag
Flag-D1R (mouse) = Flag-D1R (mouse) (UniProt Q61616); assay: as above

Protein sequences, listed by entry. Tags and fused reporters are not part of them. Lines headed by an entry give the natural chain unless they say otherwise; changes in a name come on top. Residues count along the entry.
UniProt Q61616: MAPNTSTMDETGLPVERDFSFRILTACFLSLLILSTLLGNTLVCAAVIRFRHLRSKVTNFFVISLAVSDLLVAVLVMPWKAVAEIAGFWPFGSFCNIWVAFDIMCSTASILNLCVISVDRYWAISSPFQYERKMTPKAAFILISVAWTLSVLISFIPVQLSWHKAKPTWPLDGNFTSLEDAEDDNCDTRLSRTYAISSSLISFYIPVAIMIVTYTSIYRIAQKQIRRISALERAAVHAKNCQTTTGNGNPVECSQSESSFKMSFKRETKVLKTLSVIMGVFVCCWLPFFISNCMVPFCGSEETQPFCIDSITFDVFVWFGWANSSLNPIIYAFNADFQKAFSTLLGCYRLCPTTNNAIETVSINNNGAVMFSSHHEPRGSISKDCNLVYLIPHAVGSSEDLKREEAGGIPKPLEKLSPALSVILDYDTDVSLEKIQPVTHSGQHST
Flag-D1R-CT (217–446aa): residues 217-446 of Q61616

B1: Myc-SLC35D3 (protein, UniProt Q8BGF8 1-422)
chain: MRQLCRGRVLGISVAIAHGVFSGSLNILLKFLISRYQFSFLTLVQCLTSSTAALSLELLRRLGLIAVPPFGLSLARSFAGVAVLSTLQSSLTLWSLRGLSLPMYVVFKRCLPLVTMLIGVLVLKNGAPSPGVLAAVLITTCGAALAGAGDLTGDPIGYVTGVLAVLVHAAYLVLIQKASADTEHGPLTAQYVIAVSATPLLVICSFASTDSIHAWTFPGWKDPAMVSIFVACILIGCAMNFTTLHCTYINSAVTTSFVGVVKSIATITVGMVAFSDVEPTSLFIAGVVVNTLGSIIYCVAKFLETRRQSNYEDLESQAEGEERQPSGDQLPFVMEELPAKSGNSEPESAEGAGDSVQQGGQESRGSIRGISLAARSSRAEGHSDEVGRRSLKDTYLEVWRLVRGTKYMKKDYLMENEALPSP
[1]
  binding: binds
Flag-D1R (mouse)
  binding: binds

Reference: PMC3923682
